{"source": "the supplement of paper PMC3334620", "note": "The full ranking holds about 33,000 sequences; the median of “E-score (-0.5 to 0.5)” is about -8e-05, and the highest 2% start at about 0.23. The list shows a part of the results."}
{"target": "T1, Nrg2 (UniProt P38082)", "T1 sequence": "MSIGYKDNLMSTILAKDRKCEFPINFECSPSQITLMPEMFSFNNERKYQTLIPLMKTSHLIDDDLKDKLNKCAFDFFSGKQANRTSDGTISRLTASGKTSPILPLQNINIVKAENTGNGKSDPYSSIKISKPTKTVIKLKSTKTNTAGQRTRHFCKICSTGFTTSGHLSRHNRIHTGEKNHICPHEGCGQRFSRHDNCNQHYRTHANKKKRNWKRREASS", "experiment": "PBM E-score (8-mer binding enrichment) (E-score (-0.5 to 0.5)); higher = stronger / more preferred TF binding", "conditions": "protein concentration: 100 nM; construct: GST-full length", "outline": "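Full-length yeast transcription factors or their DNA-binding domains, GST-tagged and expressed with PURExpress, were applied at about 100-200 nM to universal all-10-mer Agilent arrays. These arrays had been made double-stranded by primer extension on fresh or once-stripped slides. Detection used fluorescent anti-GST, normalisation used masliner, and E-scores for ungapped eight-base words pooled with reverse complements came from the Universal PBM Analysis Suite.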"}
{"sequence": "AAAAATAT", "PBM E-score": 0.101}
{"sequence": "CCAACCTC", "PBM E-score": 0.13}
{"sequence": "GGCTCAAA", "PBM E-score": -0.121}
{"sequence": "ACTCGCCC", "PBM E-score": -0.0739}
{"sequence": "CTTGGCGA", "PBM E-score": -0.26}
{"sequence": "AAGAGCTA", "PBM E-score": 0.125}
{"sequence": "CAAGGATG", "PBM E-score": -0.154}
{"sequence": "AGACCAAC", "PBM E-score": 0.0901}
{"sequence": "GTTGCAAC", "PBM E-score": 0.122}
{"sequence": "CTACATAA", "PBM E-score": -0.187}
{"sequence": "CATAGGCC", "PBM E-score": 0.027}
{"sequence": "ACTATTAC", "PBM E-score": 0.106}
{"sequence": "CCTGGAGC", "PBM E-score": -0.0529}
{"sequence": "CTAAAGTC", "PBM E-score": -0.22}
{"sequence": "TATAACCA", "PBM E-score": 0.0239}
{"sequence": "ACATTTGA", "PBM E-score": 0.142}
{"sequence": "TAAGCGAA", "PBM E-score": 0.0348}
{"sequence": "AATCTTGC", "PBM E-score": 0.0892}
{"sequence": "ACGGCCGG", "PBM E-score": -0.144}
{"sequence": "AGCCATTA", "PBM E-score": 0.116}
{"sequence": "ACCATCGA", "PBM E-score": 0.0748}
{"sequence": "GTCAGCAA", "PBM E-score": 0.149}
{"sequence": "ACACGTTC", "PBM E-score": -0.0112}
{"sequence": "TGACATCA", "PBM E-score": 0.232}
{"sequence": "AAGAAACC", "PBM E-score": 0.0186}
{"sequence": "TAATTAGA", "PBM E-score": 0.132}
{"sequence": "AATGCCGG", "PBM E-score": -0.00349}
{"sequence": "TAACCGTA", "PBM E-score": -0.121}
{"sequence": "GCTATTCA", "PBM E-score": 0.067}
{"sequence": "GGACCCAA", "PBM E-score": -0.00982}
{"sequence": "ATCCAGGG", "PBM E-score": 0.349}
{"sequence": "CGTCGCCA", "PBM E-score": 0.00082}
{"sequence": "CTGCCTAC", "PBM E-score": 0.0534}
{"sequence": "AGTCCGGG", "PBM E-score": -0.218}
{"sequence": "GCCAGCTA", "PBM E-score": -0.0352}
{"sequence": "GGCCGGAC", "PBM E-score": -0.0527}
{"sequence": "CGGGTGAA", "PBM E-score": 0.16}
{"sequence": "CCCGCGCG", "PBM E-score": 0.178}
{"sequence": "GAGAGAAA", "PBM E-score": 0.0525}
{"sequence": "GACTTTGC", "PBM E-score": 0.0651}
{"sequence": "AAAACATA", "PBM E-score": -0.0249}
{"sequence": "AGTATCTC", "PBM E-score": 0.038}
{"sequence": "AATACGTG", "PBM E-score": -0.0869}
{"sequence": "GACGGATC", "PBM E-score": -0.153}
{"sequence": "ATTGATTG", "PBM E-score": 0.142}
{"sequence": "ATAAATTG", "PBM E-score": 0.272}
{"sequence": "GCTTTAAC", "PBM E-score": 0.029}
{"sequence": "ACGCTATG", "PBM E-score": 0.133}
{"sequence": "CTAGGATA", "PBM E-score": -0.122}
{"sequence": "CGTGAACG", "PBM E-score": -0.219}
{"sequence": "CCATTCCC", "PBM E-score": 0.0857}
{"sequence": "AAAACGTA", "PBM E-score": -0.0659}
{"sequence": "CGTTCACC", "PBM E-score": -0.11}
{"sequence": "AACGGCTG", "PBM E-score": -0.167}
{"sequence": "AAATTGGC", "PBM E-score": -0.012}
{"sequence": "CCATACAC", "PBM E-score": 0.0831}
{"sequence": "AAGCCACG", "PBM E-score": -0.00093}
{"sequence": "AGCGCGAG", "PBM E-score": 0.0635}
{"sequence": "CTTAAAAG", "PBM E-score": -0.176}
{"sequence": "TAATCCGA", "PBM E-score": -0.0807}
{"sequence": "CGAGATAG", "PBM E-score": 0.0116}
{"sequence": "AAGTTAGA", "PBM E-score": 0.2}
{"sequence": "ACAAGGAG", "PBM E-score": 0.0537}
{"sequence": "ATTCGCAG", "PBM E-score": 0.216}
{"sequence": "ACAAGATG", "PBM E-score": 0.0775}
{"sequence": "AAGTGCAT", "PBM E-score": 0.00679}
{"sequence": "ACTATCTG", "PBM E-score": -0.0171}
{"sequence": "CCCTCCAA", "PBM E-score": 0.0557}
{"sequence": "AGGCTCAT", "PBM E-score": -0.141}
{"sequence": "ACCAGAAA", "PBM E-score": 0.041}
{"sequence": "TCGAAGAA", "PBM E-score": -0.0208}
{"sequence": "ACAGAAAT", "PBM E-score": 0.0336}
{"sequence": "CCCAGTAA", "PBM E-score": 0.0774}
{"sequence": "ACCTGTAA", "PBM E-score": 0.0427}
{"sequence": "CTTTATGC", "PBM E-score": 0.0879}
{"sequence": "GCGTTAAC", "PBM E-score": -0.0482}
{"sequence": "TTGTAAAA", "PBM E-score": -0.0338}
{"sequence": "ACATCGAG", "PBM E-score": -0.0644}
{"sequence": "ATTGGATC", "PBM E-score": 0.105}
{"sequence": "CGGGAGGC", "PBM E-score": -0.378}
{"sequence": "ACTAATCC", "PBM E-score": -0.0312}
{"sequence": "TGGTACAA", "PBM E-score": 0.0851}
{"sequence": "GCCTGCCC", "PBM E-score": -0.117}
{"sequence": "TATTATGA", "PBM E-score": 0.103}
{"sequence": "CTGAGTTA", "PBM E-score": 0.0184}
{"sequence": "AACCGCGG", "PBM E-score": 0.182}
{"sequence": "AAGCGCCT", "PBM E-score": -0.0308}
{"sequence": "GAGGGCCC", "PBM E-score": 0.151}
{"sequence": "CACTTTGA", "PBM E-score": -0.219}
{"sequence": "TAGGCATA", "PBM E-score": -0.0623}
{"sequence": "GCATTGGC", "PBM E-score": -0.284}
{"sequence": "GCAATGTA", "PBM E-score": -0.0648}
{"sequence": "ACCCCTGC", "PBM E-score": 0.066}
{"sequence": "CGAATTTA", "PBM E-score": 0.127}
{"sequence": "AGCCAACA", "PBM E-score": -0.0605}
{"sequence": "ATCTCAGG", "PBM E-score": 0.193}
{"sequence": "AGAGCGAT", "PBM E-score": -0.144}
{"sequence": "ACGCGTGC", "PBM E-score": -0.0292}
{"sequence": "AGGGTGGG", "PBM E-score": 0.192}
{"sequence": "ACCAAAGC", "PBM E-score": 0.132}
{"sequence": "ATGATTTG", "PBM E-score": 0.0998}
{"sequence": "CATGTTAG", "PBM E-score": -0.178}
{"sequence": "AGCCGGCA", "PBM E-score": "9e-05"}
{"sequence": "GCACGTCA", "PBM E-score": -0.196}
{"sequence": "CCTACAAC", "PBM E-score": 0.189}
{"sequence": "ATCACGTA", "PBM E-score": -0.0509}
{"sequence": "GCCACACC", "PBM E-score": -0.0199}
{"sequence": "ATTTGTAG", "PBM E-score": 0.156}
{"sequence": "AACTGTTC", "PBM E-score": 0.0794}
{"sequence": "GAAATCGC", "PBM E-score": 0.0997}
{"sequence": "ACGCGCAG", "PBM E-score": 0.025}
{"sequence": "CCCCCTAG", "PBM E-score": -0.358}
{"sequence": "CTGGAGAA", "PBM E-score": -0.161}
{"sequence": "CAATTCGG", "PBM E-score": 0.0993}
{"sequence": "ACTCATCT", "PBM E-score": 0.0632}
{"sequence": "GATACCCC", "PBM E-score": 0.0656}
{"sequence": "AATCCAGC", "PBM E-score": -0.13}
{"sequence": "CCTATGTC", "PBM E-score": 0.0697}
{"sequence": "CCACACTA", "PBM E-score": 0.115}
{"sequence": "AGCCCCAA", "PBM E-score": 0.0372}
{"sequence": "TCATGCAA", "PBM E-score": 0.192}
{"sequence": "CTGAATAC", "PBM E-score": 0.146}
{"sequence": "AAGTCGAT", "PBM E-score": -0.0685}
{"sequence": "AAATCTCC", "PBM E-score": -0.204}
{"sequence": "CAGAAAAG", "PBM E-score": 0.0119}
{"sequence": "CAGATAGG", "PBM E-score": -0.0361}
{"sequence": "AGCGATAC", "PBM E-score": -0.0406}
{"sequence": "AACTCACT", "PBM E-score": -0.0514}
{"sequence": "TCCCCGCA", "PBM E-score": -0.0603}
{"sequence": "CGGCTAGC", "PBM E-score": -0.127}
{"sequence": "CATTGGCA", "PBM E-score": -0.0365}
{"sequence": "AGTCTTGG", "PBM E-score": -0.172}
{"sequence": "GGCCAAAC", "PBM E-score": -0.129}
{"sequence": "CACATCGA", "PBM E-score": 0.0179}
{"sequence": "CAAAGTTG", "PBM E-score": 0.0466}
{"sequence": "AAGAACAT", "PBM E-score": 0.205}
{"sequence": "GTCCGAGA", "PBM E-score": 0.0489}
{"sequence": "ATATTCGC", "PBM E-score": 0.191}
{"sequence": "AAGGGGAT", "PBM E-score": 0.205}
{"sequence": "AATAGTCG", "PBM E-score": 0.175}
{"sequence": "GCGAGCCC", "PBM E-score": -0.0609}
{"sequence": "CCTAGATA", "PBM E-score": -0.182}
{"sequence": "CGGTAACA", "PBM E-score": 0.0498}
{"sequence": "GCCCGTGA", "PBM E-score": -0.134}
{"sequence": "AAGCACTT", "PBM E-score": -0.102}
{"sequence": "AGAGCCAC", "PBM E-score": -0.195}
{"sequence": "AAGAGGCG", "PBM E-score": -0.0266}
{"sequence": "CTGTAGGA", "PBM E-score": 0.0349}
{"sequence": "CGTGACCA", "PBM E-score": 0.0193}
{"sequence": "GCCTAGCC", "PBM E-score": -0.0193}
